Test results as given in paper PMC8917357.
No constants are given. Whether binding was seen depends on the method and setting. In cells and extracts the contact can be indirect. Some binding calls cover weakened binding; strength is not graded here.

Chains of the proteins cited; added tags and fusions are not shown.
UniProt O76216: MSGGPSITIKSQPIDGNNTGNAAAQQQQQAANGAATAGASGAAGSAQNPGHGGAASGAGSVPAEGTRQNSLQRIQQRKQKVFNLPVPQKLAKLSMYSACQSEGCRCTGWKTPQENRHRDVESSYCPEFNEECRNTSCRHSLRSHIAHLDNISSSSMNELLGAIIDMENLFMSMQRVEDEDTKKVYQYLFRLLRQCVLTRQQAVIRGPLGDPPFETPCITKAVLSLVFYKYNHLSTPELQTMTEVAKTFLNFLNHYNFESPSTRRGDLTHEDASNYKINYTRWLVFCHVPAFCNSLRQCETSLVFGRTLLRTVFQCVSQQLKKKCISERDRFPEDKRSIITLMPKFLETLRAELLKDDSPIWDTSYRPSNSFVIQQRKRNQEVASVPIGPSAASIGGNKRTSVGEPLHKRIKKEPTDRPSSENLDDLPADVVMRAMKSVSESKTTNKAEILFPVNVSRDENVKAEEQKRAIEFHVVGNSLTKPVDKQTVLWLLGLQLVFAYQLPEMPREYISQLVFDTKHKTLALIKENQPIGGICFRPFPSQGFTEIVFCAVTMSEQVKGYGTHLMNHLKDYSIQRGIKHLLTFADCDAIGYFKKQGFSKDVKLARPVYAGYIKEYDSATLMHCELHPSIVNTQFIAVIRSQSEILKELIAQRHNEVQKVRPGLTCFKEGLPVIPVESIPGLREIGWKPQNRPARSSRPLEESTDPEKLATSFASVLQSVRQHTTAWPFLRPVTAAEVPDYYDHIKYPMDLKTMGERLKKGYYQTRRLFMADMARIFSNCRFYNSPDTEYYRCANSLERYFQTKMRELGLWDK

Target: T1, Ada2b-PA (Drosophila melanogaster) (UniProt Q8I8V0)
T1 sequence: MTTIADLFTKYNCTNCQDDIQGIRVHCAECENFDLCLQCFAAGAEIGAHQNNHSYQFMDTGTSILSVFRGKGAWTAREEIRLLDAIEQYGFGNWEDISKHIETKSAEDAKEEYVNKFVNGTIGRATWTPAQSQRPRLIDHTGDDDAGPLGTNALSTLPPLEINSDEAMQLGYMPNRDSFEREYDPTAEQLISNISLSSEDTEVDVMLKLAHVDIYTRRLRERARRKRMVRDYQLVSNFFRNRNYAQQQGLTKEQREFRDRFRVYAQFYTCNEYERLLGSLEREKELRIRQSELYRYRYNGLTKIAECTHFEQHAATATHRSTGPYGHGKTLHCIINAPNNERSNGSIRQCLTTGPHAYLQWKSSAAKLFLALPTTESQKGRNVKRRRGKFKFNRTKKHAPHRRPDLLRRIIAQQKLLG
Test: co-IP; subunits expressed in Sf21 cells using Baculovirus; His-FLAG-Ada2b-PA with a single other subunit, tested for direct interaction; western blots with anti-Gcn5, anti-Ada3, anti-Sgf29, anti-FLAG

Gcn5 (from UniProt O76216 1-813) (enzyme)
binding: binds
